# Results reported in publication doi:10.1101/2021.09.14.460315.
# Chains of the proteins cited; added tags and fusions are not shown. Lines headed by an entry give the natural chain unless they say otherwise; changes in a name come on top.
# UniProt Q9VAH9: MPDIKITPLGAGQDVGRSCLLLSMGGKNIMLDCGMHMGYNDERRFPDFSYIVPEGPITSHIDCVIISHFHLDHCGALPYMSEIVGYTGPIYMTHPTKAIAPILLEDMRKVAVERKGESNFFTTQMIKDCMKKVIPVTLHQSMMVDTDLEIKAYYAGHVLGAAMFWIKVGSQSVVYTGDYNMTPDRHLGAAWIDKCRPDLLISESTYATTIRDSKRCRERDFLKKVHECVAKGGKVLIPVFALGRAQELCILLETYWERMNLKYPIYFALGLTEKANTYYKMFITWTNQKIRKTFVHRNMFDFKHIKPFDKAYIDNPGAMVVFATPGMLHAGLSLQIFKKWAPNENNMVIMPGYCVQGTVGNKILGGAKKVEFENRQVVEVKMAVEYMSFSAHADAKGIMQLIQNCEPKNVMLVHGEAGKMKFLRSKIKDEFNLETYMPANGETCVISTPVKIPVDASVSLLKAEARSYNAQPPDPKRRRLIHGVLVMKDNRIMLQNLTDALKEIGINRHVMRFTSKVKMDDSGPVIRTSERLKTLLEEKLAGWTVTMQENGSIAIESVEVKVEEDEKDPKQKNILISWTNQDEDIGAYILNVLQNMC
# UniProt Q9W1C5: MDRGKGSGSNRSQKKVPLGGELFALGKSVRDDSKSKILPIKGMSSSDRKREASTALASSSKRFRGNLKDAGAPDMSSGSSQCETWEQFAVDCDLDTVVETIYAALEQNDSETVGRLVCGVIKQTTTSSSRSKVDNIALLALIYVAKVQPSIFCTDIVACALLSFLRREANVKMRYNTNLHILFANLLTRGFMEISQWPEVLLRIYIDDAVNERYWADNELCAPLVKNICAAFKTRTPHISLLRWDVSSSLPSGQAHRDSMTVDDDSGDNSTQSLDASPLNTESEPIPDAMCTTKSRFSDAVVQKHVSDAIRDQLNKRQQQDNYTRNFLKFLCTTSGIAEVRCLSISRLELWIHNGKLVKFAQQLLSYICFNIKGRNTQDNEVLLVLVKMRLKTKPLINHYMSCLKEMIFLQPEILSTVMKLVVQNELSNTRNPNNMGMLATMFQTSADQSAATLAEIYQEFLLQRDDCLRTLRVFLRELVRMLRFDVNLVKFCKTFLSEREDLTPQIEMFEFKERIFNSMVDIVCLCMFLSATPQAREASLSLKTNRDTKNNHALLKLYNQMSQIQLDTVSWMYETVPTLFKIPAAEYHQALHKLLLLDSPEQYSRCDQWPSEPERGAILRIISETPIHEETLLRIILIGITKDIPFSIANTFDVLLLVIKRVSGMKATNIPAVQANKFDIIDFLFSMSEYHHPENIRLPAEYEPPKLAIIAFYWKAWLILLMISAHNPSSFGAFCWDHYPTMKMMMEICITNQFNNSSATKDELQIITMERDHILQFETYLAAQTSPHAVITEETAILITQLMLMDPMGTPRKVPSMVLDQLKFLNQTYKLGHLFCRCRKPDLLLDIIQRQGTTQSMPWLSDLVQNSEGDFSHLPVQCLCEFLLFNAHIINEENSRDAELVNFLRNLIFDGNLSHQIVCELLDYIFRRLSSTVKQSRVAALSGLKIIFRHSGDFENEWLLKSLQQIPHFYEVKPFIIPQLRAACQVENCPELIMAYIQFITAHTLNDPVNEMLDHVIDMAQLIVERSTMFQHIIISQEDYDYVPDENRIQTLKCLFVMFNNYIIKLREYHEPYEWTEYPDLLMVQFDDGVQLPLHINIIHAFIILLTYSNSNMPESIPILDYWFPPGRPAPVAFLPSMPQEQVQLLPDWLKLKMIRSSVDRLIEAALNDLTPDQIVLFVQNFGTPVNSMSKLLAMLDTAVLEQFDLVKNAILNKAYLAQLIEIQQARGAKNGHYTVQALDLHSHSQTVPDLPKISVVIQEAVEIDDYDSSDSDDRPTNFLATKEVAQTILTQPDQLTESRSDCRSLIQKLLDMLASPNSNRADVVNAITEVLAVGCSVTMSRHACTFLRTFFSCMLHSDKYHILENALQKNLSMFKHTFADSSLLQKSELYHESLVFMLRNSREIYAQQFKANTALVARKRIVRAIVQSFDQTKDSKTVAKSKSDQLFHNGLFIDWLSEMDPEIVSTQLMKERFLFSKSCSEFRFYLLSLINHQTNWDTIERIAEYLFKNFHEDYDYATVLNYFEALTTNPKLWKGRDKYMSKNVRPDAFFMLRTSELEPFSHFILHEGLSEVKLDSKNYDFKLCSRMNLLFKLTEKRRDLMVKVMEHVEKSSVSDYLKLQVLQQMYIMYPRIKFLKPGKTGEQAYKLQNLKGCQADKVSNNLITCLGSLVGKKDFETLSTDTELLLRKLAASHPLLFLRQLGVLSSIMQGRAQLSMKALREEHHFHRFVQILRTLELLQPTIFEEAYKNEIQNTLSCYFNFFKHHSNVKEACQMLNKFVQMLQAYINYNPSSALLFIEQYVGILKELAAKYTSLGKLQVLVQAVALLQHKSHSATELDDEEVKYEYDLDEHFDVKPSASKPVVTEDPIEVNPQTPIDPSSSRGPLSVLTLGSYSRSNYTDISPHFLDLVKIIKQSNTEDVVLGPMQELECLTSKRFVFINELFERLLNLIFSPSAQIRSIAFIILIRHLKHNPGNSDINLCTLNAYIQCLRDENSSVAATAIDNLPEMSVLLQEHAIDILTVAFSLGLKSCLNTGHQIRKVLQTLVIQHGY
# Results are given in words; binding and its absence hold for the method and conditions named. For some assays here: Binding seen in cells or lysates may run through a third protein. Some binding calls cover weakened binding; strength is not graded here. For some assays here: Tags and fused reporters may be left off the sequences shown.
# T1: Drosophila IntS9 (co-expressed in the IntS4-IntS9-IntS11 complex) (Drosophila) (UniProt Q95TS5)
# T1 sequence: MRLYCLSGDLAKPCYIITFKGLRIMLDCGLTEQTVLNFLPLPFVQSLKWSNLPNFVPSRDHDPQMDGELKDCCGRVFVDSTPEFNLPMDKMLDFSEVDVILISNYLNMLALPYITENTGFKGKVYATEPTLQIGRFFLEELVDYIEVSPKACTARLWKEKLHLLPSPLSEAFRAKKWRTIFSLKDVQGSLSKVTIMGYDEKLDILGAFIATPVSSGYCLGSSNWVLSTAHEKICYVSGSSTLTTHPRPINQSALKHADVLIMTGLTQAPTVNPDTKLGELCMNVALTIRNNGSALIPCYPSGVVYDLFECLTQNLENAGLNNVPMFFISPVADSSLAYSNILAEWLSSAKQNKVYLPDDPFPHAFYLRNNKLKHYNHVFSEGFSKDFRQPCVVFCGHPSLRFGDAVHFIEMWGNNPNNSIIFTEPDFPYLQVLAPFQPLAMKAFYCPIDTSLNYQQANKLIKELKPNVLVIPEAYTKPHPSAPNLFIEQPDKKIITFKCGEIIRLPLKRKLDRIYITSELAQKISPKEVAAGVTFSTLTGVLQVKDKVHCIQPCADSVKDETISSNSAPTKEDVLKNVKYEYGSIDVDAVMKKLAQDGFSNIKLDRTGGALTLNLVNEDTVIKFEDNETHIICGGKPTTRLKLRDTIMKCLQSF
# How the values were obtained:
# [1] = target: FLAG-IntS11-WT (Drosophila) (UniProt Q9VAH9); test: co-IP
# [2] = target: T1, Drosophila IntS9 (co-expressed in the IntS4-IntS9-IntS11 complex) (Drosophila); test: cryo-EM structure
# [3] = target: Drosophila IntS11 (co-expressed in the IntS4-IntS9-IntS11 complex) (Drosophila) (UniProt Q9VAH9); test: cryo-EM structure
# [4] = target: FLAG-IntS11-K462E (Drosophila) (UniProt Q9VAH9); test: co-IP
Molecule,binding [1],binding [3],other results
"IntS1 (endogenous, DL1 nuclear extract) (from UniProt Q9W1C5 1-2053)",binds,,
"Drosophila IntS4 (N-terminal 6xHis-tagged, co-expressed in the IntS4-IntS9-IntS11 complex) (protein, UniProt Q9W3E1 1-1022) MALAIKKRVGTYVETVDGSPPVKKLRLQTLAADAKGGKSGKVGNVERKLTALNQLDAYVGNLPAGALVLPTGTPVASTGAPSTGVIGNPPAAATGAPPMTAANSRELLELLVKITDEISYEDVEMGELKEVASKIFQLYQLQERDSDTSIRVKLLELLSGLGCECATEQALTMIIDYFIFLLRKEVSQKVLAQGMMCLFRIGERRKHMLPISYKTQVAHLAKEQLRSGSAHTQKNAMLVIGRFATKMEGERHYVWKLAFYIDSQDSSVRAQALHALLTLGERGSQLPAVLYKRAVEAMKDDYECVRKEALQLVFMLGNRHPDYILPSDRQQEELRMIDAAFSKVCEALCDLSLQIRVLAAELLGGMTAVSREFLHQTLDKKLMSNLRRKRTAHERGARLVASGEWSSGKRWADDAPQEHLDAQSISIIASGACGALIHGLEDEFLEVRTAAVASMCKLALSRPDFAVTSLDFLVDMFNDEIEDVRLKAIYSLTAIAKHIVLREDQLEIMLGSLEDYSVDVREGLHLMLGACRVSTQTCLLMVVQKLLDVLAKYPQDRNSTYACMRKIGQKHPHLVMAVAVHLLYVHPFFETPERDVEDPAYLCVLILVFNAAEHLVPIISLLPTATHRHYAYLRDSMPNLVPQLPIEGASSASATHRIDSAMHQAGSSAEYLQMILSHIEEIFTMTDERLELLQTAQSNLQRLGSIDAGMYGTSNFLETFLAAQIQIEQMQRCASTQRSRVPLKESLAALIRNCLKLQHTFSGLNYGDILQVKQLRLRACALHLVLVVRDRSQSALGPCQMLLQTAGDISEFIKANTKDEEEKPPVVETDMPMKESVSRDAQPDSFTRQLLIKLDGISDPKPGRVFREILPLVQQAPPLALPPANDKIRRCVANILEPCPLQSQDNVIKVTAGLIAAVPFVAEIDNLLESQKADMRIKIKYPDQHMHTVVPKQSDFKPIMTEQGEHKTNVRLRTTILLSHSVWTESSLVEIQLCLAVRPGSELELCKPAKVLFAPKPVRRGI",,binds,binding [2]: binds
"Drosophila IntS9 (co-expressed in the IntS4-IntS9-IntS11 complex) (protein, UniProt Q95TS5 1-654) MRLYCLSGDLAKPCYIITFKGLRIMLDCGLTEQTVLNFLPLPFVQSLKWSNLPNFVPSRDHDPQMDGELKDCCGRVFVDSTPEFNLPMDKMLDFSEVDVILISNYLNMLALPYITENTGFKGKVYATEPTLQIGRFFLEELVDYIEVSPKACTARLWKEKLHLLPSPLSEAFRAKKWRTIFSLKDVQGSLSKVTIMGYDEKLDILGAFIATPVSSGYCLGSSNWVLSTAHEKICYVSGSSTLTTHPRPINQSALKHADVLIMTGLTQAPTVNPDTKLGELCMNVALTIRNNGSALIPCYPSGVVYDLFECLTQNLENAGLNNVPMFFISPVADSSLAYSNILAEWLSSAKQNKVYLPDDPFPHAFYLRNNKLKHYNHVFSEGFSKDFRQPCVVFCGHPSLRFGDAVHFIEMWGNNPNNSIIFTEPDFPYLQVLAPFQPLAMKAFYCPIDTSLNYQQANKLIKELKPNVLVIPEAYTKPHPSAPNLFIEQPDKKIITFKCGEIIRLPLKRKLDRIYITSELAQKISPKEVAAGVTFSTLTGVLQVKDKVHCIQPCADSVKDETISSNSAPTKEDVLKNVKYEYGSIDVDAVMKKLAQDGFSNIKLDRTGGALTLNLVNEDTVIKFEDNETHIICGGKPTTRLKLRDTIMKCLQSF",,binds,

# Further lines, with some results ahead:
binding [1],binding [3],Molecule,other results
binds,,"IntS9 (endogenous, DL1 nuclear extract) (protein, UniProt Q95TS5 1-654) MRLYCLSGDLAKPCYIITFKGLRIMLDCGLTEQTVLNFLPLPFVQSLKWSNLPNFVPSRDHDPQMDGELKDCCGRVFVDSTPEFNLPMDKMLDFSEVDVILISNYLNMLALPYITENTGFKGKVYATEPTLQIGRFFLEELVDYIEVSPKACTARLWKEKLHLLPSPLSEAFRAKKWRTIFSLKDVQGSLSKVTIMGYDEKLDILGAFIATPVSSGYCLGSSNWVLSTAHEKICYVSGSSTLTTHPRPINQSALKHADVLIMTGLTQAPTVNPDTKLGELCMNVALTIRNNGSALIPCYPSGVVYDLFECLTQNLENAGLNNVPMFFISPVADSSLAYSNILAEWLSSAKQNKVYLPDDPFPHAFYLRNNKLKHYNHVFSEGFSKDFRQPCVVFCGHPSLRFGDAVHFIEMWGNNPNNSIIFTEPDFPYLQVLAPFQPLAMKAFYCPIDTSLNYQQANKLIKELKPNVLVIPEAYTKPHPSAPNLFIEQPDKKIITFKCGEIIRLPLKRKLDRIYITSELAQKISPKEVAAGVTFSTLTGVLQVKDKVHCIQPCADSVKDETISSNSAPTKEDVLKNVKYEYGSIDVDAVMKKLAQDGFSNIKLDRTGGALTLNLVNEDTVIKFEDNETHIICGGKPTTRLKLRDTIMKCLQSF",binding [4]: binds
binds,,"IntS4 (endogenous, DL1 nuclear extract) (protein, UniProt Q9W3E1 1-1022) MALAIKKRVGTYVETVDGSPPVKKLRLQTLAADAKGGKSGKVGNVERKLTALNQLDAYVGNLPAGALVLPTGTPVASTGAPSTGVIGNPPAAATGAPPMTAANSRELLELLVKITDEISYEDVEMGELKEVASKIFQLYQLQERDSDTSIRVKLLELLSGLGCECATEQALTMIIDYFIFLLRKEVSQKVLAQGMMCLFRIGERRKHMLPISYKTQVAHLAKEQLRSGSAHTQKNAMLVIGRFATKMEGERHYVWKLAFYIDSQDSSVRAQALHALLTLGERGSQLPAVLYKRAVEAMKDDYECVRKEALQLVFMLGNRHPDYILPSDRQQEELRMIDAAFSKVCEALCDLSLQIRVLAAELLGGMTAVSREFLHQTLDKKLMSNLRRKRTAHERGARLVASGEWSSGKRWADDAPQEHLDAQSISIIASGACGALIHGLEDEFLEVRTAAVASMCKLALSRPDFAVTSLDFLVDMFNDEIEDVRLKAIYSLTAIAKHIVLREDQLEIMLGSLEDYSVDVREGLHLMLGACRVSTQTCLLMVVQKLLDVLAKYPQDRNSTYACMRKIGQKHPHLVMAVAVHLLYVHPFFETPERDVEDPAYLCVLILVFNAAEHLVPIISLLPTATHRHYAYLRDSMPNLVPQLPIEGASSASATHRIDSAMHQAGSSAEYLQMILSHIEEIFTMTDERLELLQTAQSNLQRLGSIDAGMYGTSNFLETFLAAQIQIEQMQRCASTQRSRVPLKESLAALIRNCLKLQHTFSGLNYGDILQVKQLRLRACALHLVLVVRDRSQSALGPCQMLLQTAGDISEFIKANTKDEEEKPPVVETDMPMKESVSRDAQPDSFTRQLLIKLDGISDPKPGRVFREILPLVQQAPPLALPPANDKIRRCVANILEPCPLQSQDNVIKVTAGLIAAVPFVAEIDNLLESQKADMRIKIKYPDQHMHTVVPKQSDFKPIMTEQGEHKTNVRLRTTILLSHSVWTESSLVEIQLCLAVRPGSELELCKPAKVLFAPKPVRRGI",
binds,,"IntS8 (endogenous, DL1 nuclear extract) (protein, UniProt A1ZAK1 1-1007) MDDPLKPKPVPLAAETVLWFEFLLDPHKITQHLQRPHPEPSAMELIVQFISMTPNTAQESVGTPGSDLQNLNQTPSNSGPIPGVVGGAPAPTTPTASGGVGMPHSPQRPAEKGLQLNRKQLALKILELKVATWLKWDLDALEKNLPVIMQLALLRDLCTISYGCSLSIPLPNDFDARISAAGNERAARFALTIYHRMLLRMQLIKEQALKAPRPQNTMYQTVDQLQQFLDTPTQPSIEYLQQLCASTKPFYIFHYDSFVPLRCDDIGNGQNYDVMHLITPQELRAQLHYELAQYYLYTKQYVLAREAAAACNTNLQAIPPQTTLYYCHIRPSELEGLLQACGISAEEQSLLEKFQQSLLNNYTDIVSILRMDNRRREIPFISRRQVELDIEGSISTGILKETVQLQLQVAALNVVRNIFEWGSIFGSVEYFEKYRELDCLPPLVEALQEMLPHCTFKEQAALKHFLIDCLLHQGGQSRQLLQTVRGFGLFSSDELQDIDEQMLQATPPVPTNSLASLSDWMCHSKMSRVDVGALERQLISCTNANTVRILLVKLCATAPGKPLWAINPSWDVPQPLKTLIMAMPVSFLQDFSYVLLGKARELATRGNYIDAVSMLSVLKSENQRQEMAANVQLMCKLITWEILHIQITQCLEEWHQKPLDLQSLGGRCKQCLGALQAGDSIVPRPDILESCAIMLLNLTEFPPLLYLDKRAGPLELPLAFAATFIEMEKMKGPKKVCRDAWELMLSMFLNVPKRGSSGVGGISSLQAFLQRIRHQSVFGLAISMIGKVHNILKDDPNHDLSCEYMQLWPTSINNPVSYSLRSVCETLQWLLSEALSYYPQTISWLKMKGDLDLAIGNNESAMRCYVNALVTGTDYCTMPLQRNVADDYVIRKMIRCAANLGCHMQATVLCQFLDEIDYGIVFKNLSEKSSNFTDAMDAYYSCIWDTTLLEFIVNLHAKRGEHSRKLEAISMMGTLELNANNNEEIKRESAMVRKSRFLRALAKQYLL",
